The structures given here were assigned with low confidence; some may be wrong.
Target: CFTR-mediated chloride transport in human intestinal epithelial enteroid cells (Homo sapiens, UniProt P13569)
Experiment: Membrane potential dye, Enteroid Assay A
Conditions: for Ent. A Max Activity (%): percentage of chloride transport of triple combination control (3 μM N-[(6-amino-2-pyridyl)sulfonyl]-6-(3-fluoro-5-isobutoxy-phenyl)-2-[(4S)-2,2,4-trimethylpyrrolidin-1-yl]pyridine-3-carboxamide based); for EC50: read-out: Ent. A EC50, enteroid cells incubated with test compound 18-24 hours, acute 10 μM forskolin and 300 nM N-[2,4-bis(1,1-dimethylethyl)-5-hydroxyphenyl]-1,4-dihydro-4-oxoquinoline-3-carboxamide

Sequences of proteins named here, by UniProt entry; tags and fusion partners are left off. A line that says so, or that is headed by a name, gives the form on record, which may keep a tag or linker.
UniProt P13569, with tags, fused parts or gaps DEL508-508: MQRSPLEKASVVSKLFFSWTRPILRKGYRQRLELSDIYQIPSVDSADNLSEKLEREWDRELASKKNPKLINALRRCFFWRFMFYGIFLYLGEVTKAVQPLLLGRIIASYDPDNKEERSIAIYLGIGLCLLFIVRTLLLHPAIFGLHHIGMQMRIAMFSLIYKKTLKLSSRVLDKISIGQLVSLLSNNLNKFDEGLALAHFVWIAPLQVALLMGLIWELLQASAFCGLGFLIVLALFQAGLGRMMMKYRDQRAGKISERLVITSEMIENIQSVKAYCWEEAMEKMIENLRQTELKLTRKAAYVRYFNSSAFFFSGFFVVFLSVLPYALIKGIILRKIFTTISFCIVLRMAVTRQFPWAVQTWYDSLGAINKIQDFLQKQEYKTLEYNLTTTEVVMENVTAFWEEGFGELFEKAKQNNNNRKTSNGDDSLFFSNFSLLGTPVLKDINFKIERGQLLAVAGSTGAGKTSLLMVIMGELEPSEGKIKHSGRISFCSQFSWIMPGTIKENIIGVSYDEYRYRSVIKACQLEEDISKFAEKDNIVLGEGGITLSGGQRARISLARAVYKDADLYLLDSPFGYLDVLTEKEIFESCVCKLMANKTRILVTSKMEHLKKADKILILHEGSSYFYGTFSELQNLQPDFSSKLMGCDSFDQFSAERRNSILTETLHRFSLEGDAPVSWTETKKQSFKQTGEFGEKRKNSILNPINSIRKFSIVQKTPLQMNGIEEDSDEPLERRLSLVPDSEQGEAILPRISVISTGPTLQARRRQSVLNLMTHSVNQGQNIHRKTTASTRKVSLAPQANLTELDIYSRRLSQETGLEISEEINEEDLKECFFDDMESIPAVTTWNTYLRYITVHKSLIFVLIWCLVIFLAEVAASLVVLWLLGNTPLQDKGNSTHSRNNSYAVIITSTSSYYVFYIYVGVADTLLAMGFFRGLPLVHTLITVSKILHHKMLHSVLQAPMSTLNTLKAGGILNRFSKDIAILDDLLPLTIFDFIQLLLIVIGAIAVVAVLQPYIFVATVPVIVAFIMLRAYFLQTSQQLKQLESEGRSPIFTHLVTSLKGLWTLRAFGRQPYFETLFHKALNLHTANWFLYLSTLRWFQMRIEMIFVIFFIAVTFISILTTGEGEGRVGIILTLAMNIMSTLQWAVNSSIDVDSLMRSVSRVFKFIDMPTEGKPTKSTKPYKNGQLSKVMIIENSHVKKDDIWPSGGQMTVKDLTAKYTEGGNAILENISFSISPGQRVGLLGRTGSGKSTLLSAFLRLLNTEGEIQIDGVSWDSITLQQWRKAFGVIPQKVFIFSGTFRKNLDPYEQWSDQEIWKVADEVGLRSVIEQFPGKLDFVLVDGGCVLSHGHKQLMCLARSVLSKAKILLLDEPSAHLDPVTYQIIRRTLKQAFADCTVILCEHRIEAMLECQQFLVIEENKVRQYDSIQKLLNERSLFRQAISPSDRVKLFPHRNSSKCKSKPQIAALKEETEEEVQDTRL

For Cc1cccc(C)c1-c1cc2nc(n1)NS(=O)(=O)c1cccc(c1)C(=O)N1CCN(CC3CC4C=CC3C4)C[C@@H]1CO2 (some centres unmarked), the “Ent. A Max Activity (%)” value was “++ (++ is 30-60%)” and the EC50 was under 1000 nM.
Cc1cccc(C)c1-c1cc2nc(n1)NS(=O)(=O)c1cccc(c1)C(=O)N1CC(CC1(C)C)O2 (centres unmarked) was tested, and the “Ent. A Max Activity (%)” value was “++ (++ is 30-60%)” and the EC50 was 3000 to 30000 nM.
With Cc1cnc2cc1C(=O)N1Cc3ccccc3C(C1)Oc1cc(-c3c(C)cccc3C)nc(n1)NS2(=O)=O (centres unmarked) the “Ent. A Max Activity (%)” value was “+ (+ is <300%)” and the EC50 was 1000 to 3000 nM.
In the case of Cc1ccccc1-c1cc2nc(n1)NS(=O)(=O)c1cccc(c1)C(=O)N1Cc3ccccc3C(C1)O2 (centres unmarked), the “Ent. A Max Activity (%)” value is reported as “++ (++ is 30-60%)” and the EC50 is reported as under 1000 nM.
